Measured values taken from article PMC8384837.
Numbering of substitutions follows the chain as printed. Some of the results follow. For some assays here: At the low end of the ranking, values are background and their order means little.

Assays:
Conditions in all cases: yeast three-hybrid, YBZ-1, SC-Leu-His + 0.5 mM 3-AT, 4 days
[1] = target: T1, PUM1 PUF domain R6-IFC N1043I + Y1044F + Q1047C (Homo sapiens) (UniProt Q14671)
T1 sequence: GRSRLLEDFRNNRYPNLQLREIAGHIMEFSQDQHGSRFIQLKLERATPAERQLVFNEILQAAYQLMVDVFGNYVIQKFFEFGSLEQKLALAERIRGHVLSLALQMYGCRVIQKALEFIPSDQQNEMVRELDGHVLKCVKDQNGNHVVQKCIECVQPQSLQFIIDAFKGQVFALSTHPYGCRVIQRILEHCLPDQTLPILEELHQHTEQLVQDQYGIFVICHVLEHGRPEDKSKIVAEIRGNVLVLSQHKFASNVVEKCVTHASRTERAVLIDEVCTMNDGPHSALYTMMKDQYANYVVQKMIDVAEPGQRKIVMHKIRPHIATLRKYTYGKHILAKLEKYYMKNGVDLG

[2] = target: T2, PUM1 PUF domain R6-IFG N1043I + Y1044F + Q1047G (Homo sapiens) (UniProt Q14671)
T2 sequence: T1 sequence with C220G

[3] = target: T3, PUM1 PUF domain R6-IFL N1043I + Y1044F + Q1047L (Homo sapiens) (UniProt Q14671)
T3 sequence: T1 sequence with C220L

[4] = target: T4, PUM1 PUF domain R6-IFS N1043I + Y1044F + Q1047S (Homo sapiens) (UniProt Q14671)
T4 sequence: T1 sequence with C220S

[5] = target: T5, PUM1 PUF domain R6-IFT N1043I + Y1044F + Q1047T (Homo sapiens) (UniProt Q14671)
T5 sequence: T1 sequence with C220T

[6] = target: T6, PUM1 PUF domain R6-GWK N1043G + Y1044W + Q1047K (Homo sapiens) (UniProt Q14671)
T6 sequence: T1 sequence with I216G, F217W, C220K

[7] = target: T7, PUM1 PUF domain R6-GYR N1043G + Q1047R (UniProt Q14671)
T7 sequence: T1 sequence with I216G, F217Y, C220R

[8] = target: T8, PUM1 PUF domain R6-HFG N1043H + Y1044F + Q1047G (UniProt Q14671)
T8 sequence: T1 sequence with I216H, C220G

[9] = target: T9, PUM1 PUF domain R6-HHR N1043H + Y1044H + Q1047R (UniProt Q14671)
T9 sequence: T1 sequence with I216H, F217H, C220R

[10] = target: T10, PUM1 PUF domain R6-HYR N1043H + Q1047R (UniProt Q14671)
T10 sequence: T1 sequence with I216H, F217Y, C220R

[11] = target: T11, PUM1 PUF domain R6-HYS N1043H + Q1047S (UniProt Q14671)
T11 sequence: T1 sequence with I216H, F217Y, C220S

[12] = target: T12, PUM1 PUF domain R6-IFM N1043I + Y1044F + Q1047M (UniProt Q14671)
T12 sequence: T1 sequence with C220M

[13] = target: T13, PUM1 PUF domain R6-IWK N1043I + Y1044W + Q1047K (UniProt Q14671)
T13 sequence: T1 sequence with F217W, C220K

[14] = target: T14, PUM1 PUF domain R6-IWR N1043I + Y1044W + Q1047R (UniProt Q14671)
T14 sequence: T1 sequence with F217W, C220R

[15] = target: T15, PUM1 PUF domain R6-IYK N1043I + Q1047K (UniProt Q14671)
T15 sequence: T1 sequence with F217Y, C220K

[16] = target: T16, PUM1 PUF domain R6-GWM N1043G + Y1044W + Q1047M (Homo sapiens) (UniProt Q14671)
T16 sequence: T1 sequence with I216G, F217W, C220M

[17] = target: T17, PUM1 PUF domain R6-GYQ N1043G (Homo sapiens) (UniProt Q14671)
T17 sequence: T1 sequence with I216G, F217Y, C220Q

[18] = target: T18, PUM1 PUF domain R6-GYR N1043G + Q1047R (Homo sapiens) (UniProt Q14671)
T18 sequence: T1 sequence with I216G, F217Y, C220R

[19] = target: T19, PUM1 PUF domain R6-HFS N1043H + Y1044F + Q1047S (Homo sapiens) (UniProt Q14671)
T19 sequence: T1 sequence with I216H, C220S

[20] = target: T20, PUM1 PUF domain R6-HHS N1043H + Y1044H + Q1047S (UniProt Q14671)
T20 sequence: T1 sequence with I216H, F217H, C220S

## GGCUAGAACUAGUGGAUCCCCCGGCGCCCGGCGGCUCGAGCCCGGGUAAGUGUAAAUAGUCUGCAUGCCGCCGGGCGCCAUGCCUGCAGGUCGACUCUAGAAAACAUG
[1]
  binding signal (log2 enrichment (interaction score)): 0.76
[2]
  binding signal (log2 enrichment (interaction score)): -1.44
[3]
  binding signal (log2 enrichment (interaction score)): -1
[4]
  binding signal (log2 enrichment (interaction score)): -0.18
[5]
  binding signal (log2 enrichment (interaction score)): -3.69

## GGCUAGAACUAGUGGAUCCCCCGGCGCCCGGCGGCUCGAGCCCGGGUAAGUGGAAAUAGUCUGCAUGCCGCCGGGCGCCAUGCCUGCAGGUCGACUCUAGAAAACAUG
[6]
  binding signal (log2 enrichment (interaction score)): -3.67
[7]
  binding signal (log2 enrichment (interaction score)): < -8.97
[8]
  binding signal (log2 enrichment (interaction score)): < -6.74
[9]
  binding signal (log2 enrichment (interaction score)): -7.22
[10]
  binding signal (log2 enrichment (interaction score)): < -7.1
[11]
  binding signal (log2 enrichment (interaction score)): < -7.71
[12]
  binding signal (log2 enrichment (interaction score)): < -8.09
[13]
  binding signal (log2 enrichment (interaction score)): < -7.75
[14]
  binding signal (log2 enrichment (interaction score)): < -7.27
[15]
  binding signal (log2 enrichment (interaction score)): -4.39

## GGCUAGAACUAGUGGAUCCCCCGGCGCCCGGCGGCUCGAGCCCGGGUAAGUGAAAAUAGUCUGCAUGCCGCCGGGCGCCAUGCCUGCAGGUCGACUCUAGAAAACAUG
[16]
  binding signal (log2 enrichment (interaction score)): -1.32
[17]
  binding signal (log2 enrichment (interaction score)): -1.41
[18]
  binding signal (log2 enrichment (interaction score)): -0.07
[19]
  binding signal (log2 enrichment (interaction score)): -1.66
[20]
  binding signal (log2 enrichment (interaction score)): < -6.9
